# The whole screen tested about 330,000 compounds, of which about 1,000 (0.3%) were called active. The inconclusive results got no clear call from the source; some entries with a clear call stand among them for comparison. The call rests on the fitted dose curve; in most records, active means well fitted inhibition curve with a large enough effect; inconclusive means small, poorly fitted or top-dose-only effect; inactive means no such curve, though single readings can be large or run the other way; tested in mouse RAW 264.7 cells. A potency beside an inconclusive call is a rough fit, not a confirmed value.
# Assay: qHTS for Inhibitors of Cell Surface uPA Generation; further: nearly all actives have a fitted effect of over 55% in size
# Details: cell surface uPA generation assay; series mostly up to 38.3 µM
# Summary of the method: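 RAW 264.7 cells, 4000/well, given compound (1:5 dilutions, up to 38.3 uM final) and incubated 24 h at 37 C. Blocked uPA-dependent LF entry keeps ATP high; ATPlite luminescence read, 5 s exposure.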
# Potency means the concentration at half of the fitted maximal effect.
row,SMILES,Potency
1,COC(=O)C1=C(c2ccc(Cl)c(C(F)(F)F)c2)C[C@@H]2CC[C@H]1N2C(=O)NCc1cc(C)oc1C(F)(F)F,"inconclusive: 12.6 µM [inhibitor, single point]"
2,CC(C)Oc1ccc(CNC(=O)Oc2ccccc2)cc1,"inconclusive: 11.2 µM [inhibitor, single point]"
3,C/C(=N\NC(=O)c1cc(-c2cccnc2)nc2ccccc12)c1ccc(O)cc1O,active: 11.2 µM
4,CCCOC(=O)c1ccc(-[n+]2c(-c3ccccc3)cc(-c3ccccc3)cc2-c2ccccc2)cc1,"inconclusive: 10 µM [inhibitor, partial curve, poor fit]"
5,COc1ccccc1CNCC(O)Cn1c2ccccc2c2ccccc21 (stereo unspecified),"inconclusive: 28.2 µM [inhibitor, single point]"
6,O=C(Nc1cc(Br)ccc1O)C1CC(c2ccccc2Cl)=NO1 (stereo unspecified),"inconclusive: 12.6 µM [inhibitor, partial curve, poor fit]"
7,O=C(NCc1nc2ccccc2[nH]1)C1=C[C@@H](c2ccc(C(F)(F)F)cc2)C[C@@H](OCc2ccc(CO)cc2)O1,"inconclusive: 7.08 µM [inhibitor, partial curve, poor fit]"
8,CN1CCc2cc(O)cc3c2[C@H]1Cc1ccc(O)c(O)c1-3,"inconclusive: 5.62 µM [inhibitor, single point]"
9,CCC(=Nc1ccc2c(c1)CCC2)c1c(O)n(C)c(=O)n(C)c1=O,inactive
10,Cc1nccc2c1[nH]c1ccc(Br)cc12,"inconclusive: 28.2 µM [inhibitor, single point]"
11,CN(C)c1ccc(/C=C2/NC(=O)NC2=O)cc1,"inconclusive: 14.1 µM [inhibitor, partial curve, poor fit]"
12,COc1ccc2[nH]c3c(c2c1)CCN1C(=O)C(CC(=O)NCc2cccc(C(F)(F)F)c2)C[C@H](C(=O)N2CCCCC2)[C@@]31C (stereo partly specified),"inconclusive: 12.6 µM [inhibitor, partial curve, poor fit]"
13,CN1CCN(C(=O)O[C@H]2c3nccnc3C(=O)N2c2ccc(Cl)cn2)CC1,inactive
14,O=C1CN=C(c2ccccc2)c2c(sc3c2CCCC3)N1,active: 4.47 µM
15,C=CC[C@@H](Cc1ccc(F)cc1)C(=O)OC[C@H]1CCCN1C(=O)[C@H](CC=C)CC(=O)N[C@H](CO)Cc1ccccc1,inactive
16,COc1ccc2c(c1O)-c1c(OC)c(OC)cc3c1[C@H](C2)N(C)CC3,inactive
17,COC(=O)C1=C(c2cc3ccccc3s2)C[C@@H]2CC[C@H]1N2C(=O)NCc1ccc(C(F)(F)F)cc1,"inconclusive: 11.2 µM [inhibitor, single point]"
18,COc1ccc(-n2c(/C=C/c3ccc(O)c(O)c3)nc3ccccc3c2=O)cc1,inactive
19,O=C(NCc1cccs1)c1cc(C2CC2)on1,"inconclusive: 10 µM [inhibitor, partial curve, poor fit]"
20,Cn1cnc([N+](=O)[O-])c1Sc1nc2ccccc2[nH]1,"inconclusive: 11.2 µM [inhibitor, partial curve, poor fit]"
21,CS(=O)(=O)c1ccc2nc(NC(=O)c3ccccc3Br)sc2c1,"inconclusive: 5.62 µM [inhibitor, partial curve, poor fit]"

# Single values from above:
# `COC(=O)C1=C(c2ccc(Cl)c(C(F)(F)F)c2)C[C@@H]2CC[C@H]1N2C(=O)NCc1cc(C)oc1C(F)(F)F` | Potency: inconclusive: 12.6 µM [inhibitor, single point]
# `CC(C)Oc1ccc(CNC(=O)Oc2ccccc2)cc1` | Potency: inconclusive: 11.2 µM [inhibitor, single point]
# `CN1CCc2cc(O)cc3c2[C@H]1Cc1ccc(O)c(O)c1-3` | Potency: inconclusive: 5.62 µM [inhibitor, single point]

# (further entries)

row,SMILES,Potency
1,Cc1oc2cc3oc(=O)c(CCC(=O)NCCCn4ccnc4)c(C)c3cc2c1C,"inconclusive: 10 µM [inhibitor, partial curve, poor fit]"
2,COc1ccc(-c2nn(-c3ccccc3)cc2C(=O)Nc2cccc(S(=O)(=O)NC3=NCCC3)c2)cc1,"inconclusive: 3.98 µM [inhibitor, partial curve, poor fit]"
3,CC(=O)c1sc(NC(=O)c2ccco2)nc1-c1ccccc1,"inconclusive: 10 µM [inhibitor, partial curve, poor fit]"
4,COc1cc2c(cc1O)C[C@H]1NCCc3cc4c(c-2c31)OCO4,"inconclusive: 14.1 µM [inhibitor, single point]"
5,O=C(Nc1nnc(-c2ccc3c(c2)CCCC3)o1)c1ccccc1,active: 10 µM
6,Oc1ccccc1-[n+]1c(-c2ccccc2)cc(-c2ccccc2)c(O)c1-c1ccccc1,"inconclusive: 7.94 µM [inhibitor, single point]"
7,CC(=O)OC1CCC2(C)C(=CC(=O)C3C2CCC2(C)C(OC(C)=O)CCC32)C1 (stereo unspecified),inactive
8,Cc1cccc(-n2c(O)c(/C=C3/C(c4ccccc4)=Nc4ccccc43)c(=O)[nH]c2=O)c1,"inconclusive: 2.24 µM [inhibitor, full curve, poor fit]"
9,Cc1ccc(N)c(N)c1,"inconclusive: 6.31 µM [inhibitor, partial curve, poor fit]"
10,CN1C(=O)NC(=O)/C(=C/c2ccc(C(=O)O)cc2)C1=O,inactive
11,C=CC[C@@H](CC/C=C/C=C/CC/C=C\[C@@H]1CSC([C@@H]2C[C@@H]2C)=N1)OC,"inconclusive: 2 µM [inhibitor, full curve, poor fit]"
12,O=C(c1ccc2c(c1)N(Cc1ccccc1)CCS2)N1CCC2(CC1)OCCO2,inactive
13,O=C(Cn1ncc(Cl)c(Cl)c1=O)NCC1CCCCC1,"inconclusive: 10 µM [inhibitor, partial curve, poor fit]"
14,c1cc(CN2CCCCC2)cc(OCCCNc2nc3ccccc3s2)c1,"inconclusive: 12.6 µM [inhibitor, single point]"
15,CC(C)CN(CC(C)C)c1ccc(C=C2C(=O)NC(=S)NC2=O)cc1[N+](=O)[O-],inactive
16,COc1ccc(C[C@H]2CN3C(=NC[C@@H]3Cc3ccc(O)cc3)N2C[C@H](C)NC(=O)c2ccc(C)c(Br)c2)cc1,"inconclusive: 12.6 µM [inhibitor, single point]"
17,CCN(CCCCOC(=O)c1ccc(OC)c(OC)c1)C(C)Cc1ccc(OC)cc1 (stereo unspecified),"inconclusive: 6.31 µM [inhibitor, single point]"
18,COC(=O)C1=C(c2cc3ccccc3s2)C[C@@H]2CC[C@H]1N2C(=O)NCc1ccc(F)cc1,inactive
19,O=C(C[N+]12CCC(CC1)C(CO)C2)c1ccc(Br)cc1 (stereo unspecified),inactive
20,Cc1cc(C)cc(NC(=O)Cn2c(=O)oc3cc(S(=O)(=O)N4CC(C)CC(C)C4)ccc32)c1 (stereo unspecified),"inconclusive: 28.2 µM [inhibitor, single point]"
21,Cc1ccc(C(=O)Nc2ccccc2-c2ccccc2)cc1S(=O)(=O)Nc1ccccc1,"inconclusive: 12.6 µM [inhibitor, single point]"

row,SMILES,Potency
1,CCc1nnc(NC(=O)CSc2nccn2-c2cccc(C)c2C)s1,"inconclusive: 10 µM [inhibitor, partial curve, poor fit]"
2,COc1ccc(N2CCN(C(=O)c3ccc4c(Cl)c5c(nc4c3)CCCC5)CC2)cc1,"inconclusive: 11.2 µM [inhibitor, single point]"
3,Cc1sc2ccccc2c1CC1=NCCN1,"inconclusive: 3.16 µM [inhibitor, partial curve]"
4,COc1ccc2c(c1)OC[C@H]1[C@H]2N2C(=O)c3cc(C)ccc3NC(=O)[C@@]2(C)[C@H]1c1ccccc1,"inconclusive: 12.6 µM [inhibitor, single point]"
5,Cc1cc(C=C2C(=O)NC(=S)NC2=O)c(C)n1C1CCCC1,inactive
6,O=C1CSC(=S)N1Cc1cccs1,"inconclusive: 12.6 µM [inhibitor, single point]"
7,C=C1C(=O)O[C@@]23[C@H]1CC[C@@H](C)[C@@H]2CC[C@@]1(C)O[C@@H]31,"inconclusive: 4.47 µM [inhibitor, partial curve, poor fit]"
8,Cc1cccc(OP(N)(=O)Oc2cccc(C)c2C)c1C,"inconclusive: 10 µM [inhibitor, single point]"
9,CCOC(=O)C1(c2ccccc2)CCN(CCC(C#N)(c2ccccc2)c2ccccc2)CC1,"inconclusive: 12.6 µM [inhibitor, single point]"
10,Cn1cccc1/C=C1\C(=O)NC(=O)N(Cc2ccco2)C1=O,"inconclusive: 2.51 µM [inhibitor, partial curve, poor fit]"
11,N#CC(C#N)=Cc1ccc(O)c(O)c1,"inconclusive: 3.16 µM [inhibitor, partial curve, poor fit]"
12,CC(C)[C@H]1C(=O)N2CCC[C@H]2[C@]2(O)O[C@](NC(=O)[C@@H]3C=C4c5cccc6[nH]cc(c56)C[C@H]4N(C)C3)(C(C)C)C(=O)N12,"inconclusive: 5.62 µM [inhibitor, partial curve, poor fit]"
13,CNc1ccc2nc3ccccc3[n+](C)c2c1,active: 4.47 µM
14,C[C@H](CO)N1C[C@H](C)[C@@H](CN(C)C(=O)Nc2ccc(C(F)(F)F)cc2)Oc2c(NC(=O)NC3CCCCC3)cccc2C1=O,"inconclusive: 11.2 µM [inhibitor, single point]"
15,Cc1ccc(/C=C/C(=O)C2C(=O)c3ccccc3C2=O)cc1,"inconclusive: 1.12 µM [inhibitor, full curve, poor fit]"
16,COC(=O)C1=C(c2ccc3ccccc3c2)C[C@@H]2CC[C@H]1N2C(=O)NC1CCCCC1,"inconclusive: 12.6 µM [inhibitor, single point]"
17,CCC1CCCCN1S(=O)(=O)c1ccc(NC(=O)c2ccncc2)cc1 (stereo unspecified),"inconclusive: 5.62 µM [inhibitor, partial curve, poor fit]"
18,COc1ccccc1C(=O)Nc1ccc2c(c1)CC1(C(=O)N(C)C(=O)N(C)C1=O)C1CCCN21 (stereo unspecified),inactive
19,Cc1ccccc1-n1c(CNc2ccccc2)nc2ccccc2c1=O,"inconclusive: 12.6 µM [inhibitor, single point]"
